Binding data for one substance are collected here from paper PMC12146375.

These are yes or no findings as the source states them, for the method shown. Binding seen in cells or lysates may run through a third protein. A result given as binding can be weak or reduced; the word gives no strength. Tags and fused reporters may be left off the sequences shown.

The target in this assay is T1, VdAHA1-nLUC (Verticillium dahliae) (UniProt G2XIU4).
T1 sequence: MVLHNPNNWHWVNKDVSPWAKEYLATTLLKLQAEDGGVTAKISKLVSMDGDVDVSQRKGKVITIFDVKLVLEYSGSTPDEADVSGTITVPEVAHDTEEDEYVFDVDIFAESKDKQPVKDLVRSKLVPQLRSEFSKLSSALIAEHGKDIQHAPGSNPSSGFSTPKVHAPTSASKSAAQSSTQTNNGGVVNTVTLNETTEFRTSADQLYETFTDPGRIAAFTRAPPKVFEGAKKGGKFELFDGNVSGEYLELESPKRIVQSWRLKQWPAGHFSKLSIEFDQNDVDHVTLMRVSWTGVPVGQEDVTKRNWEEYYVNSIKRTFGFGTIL
Put plainly: split reporter; luciferase complementation (LCI): VdAHA1-nLUC and VdHSP90-1-cLUC co-infiltrated by Agrobacterium AGL1 (1:1) into 4-week-old tobacco leaves, signal read with a cooled CCD after 48 h.

Take VdHSP90-1-cLUC (Verticillium dahliae): the binding result was “binds”.
